This data set relates to MDR1-MDCK cell monolayers. Nature of the data set: MDR1/MDCK assay (blood-brain barrier penetration potential). To be noted: 5 μM, pH 7.4, 120 minutes; for MDCK permeability (MDR1-MDCK); Mean; Papp (B − A): B to A.

The values below come from patent US20250313563A1, “GLYCOGEN SYNTHASE KINASE 3 INHIBITORS AND USES THEREOF” (The Broad Institute, Inc., priority 2022, published 2025).

Certain results were filed several times, with different values. This list holds those alone. The source may hold further records. For part of these data: The records of an entry read as repeated measurements on other runs, samples or individuals. For part of these data: Values that stand side by side seem to repeat one measurement; a mean can stand among them.

For `CC(C)(C)Cc1[nH]nc2c1C1(CN(S(=O)(=O)CC3CC3)C1)C1=C(CC3(CCC3)CC1=O)N2` [Compound 107829], the “MDCK permeability (MDR1-MDCK); Mean; Papp (B − A)” value is 27.89 10^−6 cm/s and 8.72 10^−6 cm/s. In the case of `CC(C)(C)Cc1[nH]nc2c1C1(CN(S(=O)(=O)CC3CC3)C1)C1=C(CC(C)(C)CC1=O)N2`, the “MDCK permeability (MDR1-MDCK); Mean; Papp (B − A)” value is listed as 21.698 10^−6 cm/s, 30.24 10^−6 cm/s, 9.3765 10^−6 cm/s, 11.71 10^−6 cm/s. Moreover, the “MDCK permeability (MDR1-MDCK); Mean; Papp (A − B)” value (A to B) is 1.6843 10^−6 cm/s and 1.37 10^−6 cm/s.
